Measured data: PubChem BioAssay AID652272 (Drosophila RNAi Screening Center, 2013)
The screen tested about 21,000 reagents; this is an unselected part of those with a known target gene and a result. Over the whole deposit, 503 (2.4%) were called active. 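Raw plate light values, not normalised; calls rest on replicate z-scores that were not deposited; hits include reporter decreases as well as increases.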 The numbers tell different reagents against one gene apart. Names joined by + are all predicted targets of the reagent. The record does not give: the amount of reagent, the time to read-out.

- Purpose: 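Genome-wide knock-down search for components of Hedgehog signalling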 (primary screen)
- Cells: Drosophila clone 8 (Cl8) cells
- Knock-down reagent: long dsRNA against Drosophila genes
- Detection: 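Firefly light from a Hedgehog-responsive ptc promoter reporter and Renilla reference light, both read on a plate reader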
- Reading the numbers: firefly Hh reporter signal: higher = more ptc reporter light; Renilla reference signal: higher = more Renilla control light
- Active means: 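Called a hit if the two-replicate mean z-score lies below -2 or above +3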
- Meaning of the calls: active = hit: reporter lowered or raised; inactive = not a hit

no.	predicted target	reagent	firefly Hh reporter signal, replicate 1	firefly Hh reporter signal, replicate 2	firefly Hh reporter signal, replicate 3	Renilla reference signal, replicate 1	Renilla reference signal, replicate 2	activity call
1	CR11386 + CR33222	1	54243	2.55e5		2290	9744	inactive
2	CG10576	1	83248	89984		4103	3831	inactive
3	RapGAP1 (Rap GTPase activating protein 1)	1	1.27e5	4.97e5	58192	3084	30331	inactive
4	RapGAP1 (Rap GTPase activating protein 1)	2	94563	51210		2757	4699	inactive
5	RapGAP1 (Rap GTPase activating protein 1)	3	1.42e5	64884		3440	6364	inactive
6	RapGAP1 (Rap GTPase activating protein 1)	4	92884	1.09e5		2796	5082	inactive
7	CG13920	1	1.40e5	1.07e5		5719	4512	inactive
8	ana3 (anastral spindle 3)	1	83868	48410		2160	3712	inactive
9	Kr-h1 (Kruppel homolog 1)	1	5.50e5	1.40e5		24077	5777	inactive
10	Kr-h1 (Kruppel homolog 1)	2	83312	38641		3425	1732	inactive
11	RpL29 (Ribosomal protein L29)	1	83883	78392		2340	6629	inactive
12	Cpr62Bb (Cuticular protein 62Bb)	1	1.05e5	48658		3372	3828	inactive
13	CG14929	1	93123	75320		2864	5856	inactive
14	CG17224	1	97529	75333		1611	6262	inactive
15	Vti1a (Vesicle transport through interaction with t-SNAREs 1a)	1	1.29e5	54709		4740	1875	inactive
16	CG31848	1	4.38e5	2.90e5		21965	10758	inactive
17	CG13615	1	5.41e5	98566		28272	3619	inactive
18	bbg (big bang)	1	1.40e5			7456	4102	inactive
19	bbg (big bang)	2	55778			3160	2019	inactive
20	ppk5 (pickpocket 5)	1	3.42e5			7280		inactive
21	CG42354 + CG42353	1	59114	50519		1842	1221	inactive
22	nonA-l (nonA-like)	1	78692	78921		1634	1993	inactive
23	Stt3B	1	4.94e5	1.06e5		25729	3197	inactive
24	CG14696	1	74789	1.04e5		2130	2705	inactive
25	Sbp2 (SECIS-binding protein 2)	1	84954	88471		3606	3465	inactive
26	Tim17a1	1	1.22e5	2.00e5		4012	5591	inactive
27	CG13360	1	1.71e5	1.43e5		3341	5716	inactive
28	CG7381	1	1.42e5	90109		5730	3892	inactive
29	trx (trithorax)	1	1.33e5	95320		4201	2922	inactive
30	PIG-L (Phosphatidylinositol glycan anchor biosynthesis class L)	1	5.71e5	98901		28128	2680	inactive
31	CG13069	1	1.16e5			6659	4186	inactive
32	HDAC3 (Histone deacetylase 3)	1	48352	47621		3461	3323	active
33	Sf3b2 (Splicing factor 3b subunit 2)	1	40371	26625		3538	2291	active
34	Pi3K68D (Phosphatidylinositol 3-kinase 68D)	1	85168	65987		3610	2917	inactive
35	CG4338	1	77690	74020		3090	2922	inactive
36	CG5902	1	1.31e5	65250		4765	2305	inactive
37	CG13538	1	1.33e5	71001		3616	6773	inactive
38	CG31546	1	1.24e5	82984		4476	3106	inactive
39	yip3 (yippee interacting protein 3)	1	71248	66565		1211	5507	inactive
40	CG8708	1	77130	48179		2496	1737	inactive
41	dmrt99B (doublesex-Mab related 99B)	1	48076	39892		1956	1491	inactive
42	Mst84B (Male-specific transcript 84B)	1	1.21e5	1.71e5		5188	5168	inactive
43	laf (labial associated factor)	1	74380	1.05e5		3083	1984	inactive
44	conv (convoluted)	1	74160	55814		1845	4164	inactive
45	Or45b (Odorant receptor 45b)	1	1.09e5	70297		2688	5605	inactive
46	CG30275	1	1.16e5	95383		3157	7904	inactive
47	Ptth (Prothoracicotropic hormone)	1	1.02e5	1.01e5		2724	2704	inactive
48	ac (achaete)	1	33728	79378		839	3419	inactive
49	CG15362	1	1.12e5	1.25e5		2742	2444	inactive
50	CG12699	1	1.18e5	83290		4777	3285	inactive
51	Gagr (Gag-related)	1	1.41e5	66971		5282	2596	inactive
52	CG11927	1	65984	92954		3146	3393	inactive
53	CG14803	1	1.36e5	2.88e5		5003	9866	inactive
54	Gp150	1	2.08e5	76979		5092	2050	inactive
55	Arf4 (ADP ribosylation factor 4)	1	48313	1.32e5		1667	6986	inactive
56	aop (anterior open)	1	51480	35219		1418	971	inactive
57	CG12420	1	1.36e5	6.19e5	2.17e5	4171	4155	inactive
58	RpL8 (Ribosomal protein L8)	1	27035	16301		1328	2212	active
59	RpL8 (Ribosomal protein L8)	2	23320	18298		1444	2240	active
60	POLDIP2 (Polymerase (DNA-directed), delta interacting protein 2)	1	1.27e5	1.10e5		4977	4085	inactive
61	5-HT1A (5-hydroxytryptamine (serotonin) receptor 1A)	1	54643	54679		804	3722	inactive
62	Ubr1 (Ubr1 ubiquitin ligase)	1	71089	91244		2042	2805	inactive
63	CG14657	1	52972	95904		1686	3280	inactive
64	CG14657	2	99875	95623		3676	3729	inactive
65	l(2)37Bb (lethal (2) 37Bb)	1	1.08e5	6.26e5	64393	2370	36396	inactive
66	CaMKII (Calcium/calmodulin-dependent protein kinase II)	1	1.06e5	98360		2489	2679	inactive
67	Trp1 (Translocation protein 1)	1	1.28e5	42437		2773	5370	inactive
68	Dlip2 (Dorsal interacting protein 2)	1	1.38e5	1.57e5		5222	4704	inactive
69	Cnx14D (Calnexin 14D)	1	1.06e5	2.98e5		2280	11376	inactive
70	CG10366	1	1.10e5	83724		4427	3584	inactive
71	Drp1 (Dynamin related protein 1)	1	75467	64224		3212	2628	inactive
72	Eip74EF (Ecdysone-induced protein 74EF)	1	34820	49718		1473	1971	inactive
73	Eip74EF (Ecdysone-induced protein 74EF)	2	64336			2517	2001	inactive

Just “firefly Hh reporter signal, replicate 1” (12 entries from above):
RpL29 (Ribosomal protein L29): 83883
Cpr62Bb (Cuticular protein 62Bb): 1.05e5
CG14929: 93123
CG17224: 97529
Vti1a (Vesicle transport through interaction with t-SNAREs 1a): 1.29e5
CG31848: 4.38e5
CG13615: 5.41e5
bbg (big bang) #1: 1.40e5
bbg (big bang) #2: 55778
ppk5 (pickpocket 5): 3.42e5
CG42354 + CG42353: 59114
nonA-l (nonA-like): 78692
